# No constants are given. Whether binding was seen depends on the method and setting. In cells and extracts the contact can be indirect. Some results given as binding are weak or reduced against the parent protein; the word gives no strength. Where a sequence is shown, tags or fusion partners need not be part of it.
# Chains of the proteins cited; added tags and fusions are not shown. Lines headed by an entry give the natural chain unless they say otherwise; changes in a name come on top. A line that says so, or that is headed by a name, gives the form on record, which may keep a tag or linker.
# UniProt Q969H0: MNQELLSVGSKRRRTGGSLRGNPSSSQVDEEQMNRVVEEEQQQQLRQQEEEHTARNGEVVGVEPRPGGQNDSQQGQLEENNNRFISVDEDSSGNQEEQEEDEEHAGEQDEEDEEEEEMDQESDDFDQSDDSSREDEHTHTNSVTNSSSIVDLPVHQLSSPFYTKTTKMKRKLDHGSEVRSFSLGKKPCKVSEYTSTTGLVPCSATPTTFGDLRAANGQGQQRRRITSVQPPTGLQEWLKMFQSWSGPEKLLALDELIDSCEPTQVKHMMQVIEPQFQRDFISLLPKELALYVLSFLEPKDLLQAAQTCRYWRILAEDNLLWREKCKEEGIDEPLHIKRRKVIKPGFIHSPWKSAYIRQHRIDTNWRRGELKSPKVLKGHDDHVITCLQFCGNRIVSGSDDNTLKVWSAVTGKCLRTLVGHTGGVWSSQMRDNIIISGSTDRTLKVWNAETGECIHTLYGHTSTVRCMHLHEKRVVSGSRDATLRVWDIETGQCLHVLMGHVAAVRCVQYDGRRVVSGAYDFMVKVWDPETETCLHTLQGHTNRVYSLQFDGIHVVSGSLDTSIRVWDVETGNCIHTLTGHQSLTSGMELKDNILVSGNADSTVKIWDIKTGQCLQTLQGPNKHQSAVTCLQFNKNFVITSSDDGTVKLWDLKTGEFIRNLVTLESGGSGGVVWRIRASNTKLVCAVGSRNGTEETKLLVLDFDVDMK
# FLAG-FBXW7γ (Q969H0-4, form named): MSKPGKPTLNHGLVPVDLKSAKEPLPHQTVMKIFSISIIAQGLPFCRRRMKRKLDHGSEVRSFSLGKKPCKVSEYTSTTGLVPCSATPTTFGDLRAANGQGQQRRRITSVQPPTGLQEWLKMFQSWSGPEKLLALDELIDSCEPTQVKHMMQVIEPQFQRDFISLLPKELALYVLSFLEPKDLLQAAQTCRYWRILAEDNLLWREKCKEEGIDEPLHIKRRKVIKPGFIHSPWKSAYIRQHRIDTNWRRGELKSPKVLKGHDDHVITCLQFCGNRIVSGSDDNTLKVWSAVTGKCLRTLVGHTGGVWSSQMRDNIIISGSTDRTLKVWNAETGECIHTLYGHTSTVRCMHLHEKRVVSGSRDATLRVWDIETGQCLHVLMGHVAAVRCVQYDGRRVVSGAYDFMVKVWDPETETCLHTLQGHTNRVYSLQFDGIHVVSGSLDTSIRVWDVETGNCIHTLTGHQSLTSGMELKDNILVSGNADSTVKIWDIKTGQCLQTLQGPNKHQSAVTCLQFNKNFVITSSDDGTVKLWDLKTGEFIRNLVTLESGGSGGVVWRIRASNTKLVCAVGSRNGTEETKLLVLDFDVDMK
# T1: myc-UBE2QL1 (human) (UniProt A1L167)
# T1 sequence: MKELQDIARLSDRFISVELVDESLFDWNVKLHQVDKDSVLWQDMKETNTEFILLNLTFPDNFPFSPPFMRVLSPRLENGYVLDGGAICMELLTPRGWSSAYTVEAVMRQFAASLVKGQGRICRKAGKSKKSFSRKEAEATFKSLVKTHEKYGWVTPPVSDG
# What was measured:
# Experiment in all cases: co-IP; HEK-293 cells co-transfected; lysis in NETN buffer (50 mM Tris-HCl pH 7.5, 150 mM NaCl, 1 mM EDTA, 1% Nonidet P-40); anti-myc or anti-FLAG antibody on protein G Dynabeads, 2 hr at 4°C; immunoblot with the reciprocal antibody
# myc-UBE2QL1 (human) = target: T1, myc-UBE2QL1 (human)
# FLAG-FBXW7α = FLAG-FBXW7α (UniProt Q969H0)
# FLAG-FBXW7γ = FLAG-FBXW7γ (UniProt Q969H0)
binding (myc-UBE2QL1 (human)),binding (FLAG-FBXW7α),binding (FLAG-FBXW7γ),Molecule
binds,–,–,FLAG-FBXW7α (from UniProt Q969H0-1 1-707)
binds,–,–,FLAG-FBXW7γ (from UniProt Q969H0-4 1-589)
–,binds,binds,"myc-UBE2QL1 (enzyme, UniProt A1L167 1-161) MKELQDIARLSDRFISVELVDESLFDWNVKLHQVDKDSVLWQDMKETNTEFILLNLTFPDNFPFSPPFMRVLSPRLENGYVLDGGAICMELLTPRGWSSAYTVEAVMRQFAASLVKGQGRICRKAGKSKKSFSRKEAEATFKSLVKTHEKYGWVTPPVSDG"
